No constants are given. Whether binding was seen depends on the method and setting. Binding seen in cells or lysates may run through a third protein. Some results given as binding are weak or reduced against the parent protein; the word gives no strength. Sequences can lack the tags named with a protein.
Target: T1, Flag-tagged GPX8 (Glutathione Peroxidase 8) (UniProt Q8TED1)
T1 sequence: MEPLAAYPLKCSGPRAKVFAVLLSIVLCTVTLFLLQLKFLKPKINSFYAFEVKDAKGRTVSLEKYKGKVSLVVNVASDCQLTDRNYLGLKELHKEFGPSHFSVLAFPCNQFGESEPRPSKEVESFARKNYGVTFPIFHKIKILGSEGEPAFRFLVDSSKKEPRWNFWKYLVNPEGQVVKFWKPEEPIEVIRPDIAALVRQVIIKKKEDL
Experiment: co-IP; lysates of transfected cells, FLAG antibody (1:200) on Protein G-Sepharose beads, 6 h at 4 °C, beads washed three times with lysis buffer, western blot

By UniProt entry, the sequences of proteins in these tests, tags left out.
UniProt P11142: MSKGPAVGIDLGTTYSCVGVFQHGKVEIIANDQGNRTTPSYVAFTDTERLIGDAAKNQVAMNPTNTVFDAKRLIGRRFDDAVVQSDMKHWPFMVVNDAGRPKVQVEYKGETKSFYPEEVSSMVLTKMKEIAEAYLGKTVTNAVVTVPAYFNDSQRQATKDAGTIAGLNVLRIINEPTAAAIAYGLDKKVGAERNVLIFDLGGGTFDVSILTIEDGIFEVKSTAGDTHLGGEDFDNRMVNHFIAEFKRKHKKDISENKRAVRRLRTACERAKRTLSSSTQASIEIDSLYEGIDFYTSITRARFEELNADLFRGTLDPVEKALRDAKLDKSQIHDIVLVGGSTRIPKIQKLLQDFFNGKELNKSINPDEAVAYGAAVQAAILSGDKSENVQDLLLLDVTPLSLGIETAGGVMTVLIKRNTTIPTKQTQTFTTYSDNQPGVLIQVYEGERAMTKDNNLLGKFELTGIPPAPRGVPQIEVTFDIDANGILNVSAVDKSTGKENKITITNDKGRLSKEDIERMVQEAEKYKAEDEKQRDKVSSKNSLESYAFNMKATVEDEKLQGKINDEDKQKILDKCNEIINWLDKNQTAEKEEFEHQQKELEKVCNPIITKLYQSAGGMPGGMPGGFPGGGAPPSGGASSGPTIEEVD

For “71-kDa heat shock cognate protein (Hsc70) (from UniProt P11142 1-646)”, the binding was “binds”.
